The experiment concerns the target CAPS1 (calcium-dependent activator protein for secretion, CADPS) (rat (endogenous in rat brain)) (UniProt Q62717). The experiment is described as follows: affinity purification with mass spectrometry; CAPS peptide antibody on Protein A Dynabeads; rat brain crude synaptosomal membranes solubilized in 1% Triton X-100; 1 h at 4 °C; washes in PBS with 1% Triton X-100; elution with the CAPS 21-mer peptide; LC-MS/MS of the whole eluate; control nonimmune rabbit IgGs.

Sequences of proteins named here, by UniProt entry; tags and fusion partners are left off.
UniProt Q62717: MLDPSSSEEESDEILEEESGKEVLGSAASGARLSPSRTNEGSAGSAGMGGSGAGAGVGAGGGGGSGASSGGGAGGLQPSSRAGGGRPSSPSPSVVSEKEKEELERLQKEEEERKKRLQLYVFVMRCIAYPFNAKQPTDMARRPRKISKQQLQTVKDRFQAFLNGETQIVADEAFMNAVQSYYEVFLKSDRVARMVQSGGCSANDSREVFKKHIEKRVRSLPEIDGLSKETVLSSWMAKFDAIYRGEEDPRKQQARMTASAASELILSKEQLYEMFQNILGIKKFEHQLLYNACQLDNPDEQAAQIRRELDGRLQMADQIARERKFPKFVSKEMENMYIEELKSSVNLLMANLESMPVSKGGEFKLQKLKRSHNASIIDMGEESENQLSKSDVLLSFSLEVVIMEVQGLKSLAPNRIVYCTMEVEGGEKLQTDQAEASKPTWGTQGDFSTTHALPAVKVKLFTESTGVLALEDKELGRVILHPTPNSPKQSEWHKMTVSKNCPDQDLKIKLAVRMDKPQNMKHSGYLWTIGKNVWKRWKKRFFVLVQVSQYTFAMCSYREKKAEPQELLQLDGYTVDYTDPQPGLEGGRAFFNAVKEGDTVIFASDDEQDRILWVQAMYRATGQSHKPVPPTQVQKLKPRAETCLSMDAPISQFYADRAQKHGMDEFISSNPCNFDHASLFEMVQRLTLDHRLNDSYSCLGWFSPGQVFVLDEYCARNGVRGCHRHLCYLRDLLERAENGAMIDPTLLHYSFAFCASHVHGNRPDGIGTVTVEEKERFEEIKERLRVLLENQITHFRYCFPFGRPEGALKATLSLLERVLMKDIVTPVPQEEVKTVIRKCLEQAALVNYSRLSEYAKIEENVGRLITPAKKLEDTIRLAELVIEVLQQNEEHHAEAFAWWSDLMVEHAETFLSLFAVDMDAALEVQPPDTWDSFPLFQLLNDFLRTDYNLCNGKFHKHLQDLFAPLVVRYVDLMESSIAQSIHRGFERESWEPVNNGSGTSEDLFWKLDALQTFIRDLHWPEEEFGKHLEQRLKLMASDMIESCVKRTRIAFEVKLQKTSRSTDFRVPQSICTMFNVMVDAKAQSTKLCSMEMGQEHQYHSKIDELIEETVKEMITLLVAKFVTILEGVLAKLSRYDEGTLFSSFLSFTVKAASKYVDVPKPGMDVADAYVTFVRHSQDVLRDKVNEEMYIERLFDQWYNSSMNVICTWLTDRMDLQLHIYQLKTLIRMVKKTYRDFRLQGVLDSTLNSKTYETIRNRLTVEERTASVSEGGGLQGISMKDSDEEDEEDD
UniProt Q9ERH3: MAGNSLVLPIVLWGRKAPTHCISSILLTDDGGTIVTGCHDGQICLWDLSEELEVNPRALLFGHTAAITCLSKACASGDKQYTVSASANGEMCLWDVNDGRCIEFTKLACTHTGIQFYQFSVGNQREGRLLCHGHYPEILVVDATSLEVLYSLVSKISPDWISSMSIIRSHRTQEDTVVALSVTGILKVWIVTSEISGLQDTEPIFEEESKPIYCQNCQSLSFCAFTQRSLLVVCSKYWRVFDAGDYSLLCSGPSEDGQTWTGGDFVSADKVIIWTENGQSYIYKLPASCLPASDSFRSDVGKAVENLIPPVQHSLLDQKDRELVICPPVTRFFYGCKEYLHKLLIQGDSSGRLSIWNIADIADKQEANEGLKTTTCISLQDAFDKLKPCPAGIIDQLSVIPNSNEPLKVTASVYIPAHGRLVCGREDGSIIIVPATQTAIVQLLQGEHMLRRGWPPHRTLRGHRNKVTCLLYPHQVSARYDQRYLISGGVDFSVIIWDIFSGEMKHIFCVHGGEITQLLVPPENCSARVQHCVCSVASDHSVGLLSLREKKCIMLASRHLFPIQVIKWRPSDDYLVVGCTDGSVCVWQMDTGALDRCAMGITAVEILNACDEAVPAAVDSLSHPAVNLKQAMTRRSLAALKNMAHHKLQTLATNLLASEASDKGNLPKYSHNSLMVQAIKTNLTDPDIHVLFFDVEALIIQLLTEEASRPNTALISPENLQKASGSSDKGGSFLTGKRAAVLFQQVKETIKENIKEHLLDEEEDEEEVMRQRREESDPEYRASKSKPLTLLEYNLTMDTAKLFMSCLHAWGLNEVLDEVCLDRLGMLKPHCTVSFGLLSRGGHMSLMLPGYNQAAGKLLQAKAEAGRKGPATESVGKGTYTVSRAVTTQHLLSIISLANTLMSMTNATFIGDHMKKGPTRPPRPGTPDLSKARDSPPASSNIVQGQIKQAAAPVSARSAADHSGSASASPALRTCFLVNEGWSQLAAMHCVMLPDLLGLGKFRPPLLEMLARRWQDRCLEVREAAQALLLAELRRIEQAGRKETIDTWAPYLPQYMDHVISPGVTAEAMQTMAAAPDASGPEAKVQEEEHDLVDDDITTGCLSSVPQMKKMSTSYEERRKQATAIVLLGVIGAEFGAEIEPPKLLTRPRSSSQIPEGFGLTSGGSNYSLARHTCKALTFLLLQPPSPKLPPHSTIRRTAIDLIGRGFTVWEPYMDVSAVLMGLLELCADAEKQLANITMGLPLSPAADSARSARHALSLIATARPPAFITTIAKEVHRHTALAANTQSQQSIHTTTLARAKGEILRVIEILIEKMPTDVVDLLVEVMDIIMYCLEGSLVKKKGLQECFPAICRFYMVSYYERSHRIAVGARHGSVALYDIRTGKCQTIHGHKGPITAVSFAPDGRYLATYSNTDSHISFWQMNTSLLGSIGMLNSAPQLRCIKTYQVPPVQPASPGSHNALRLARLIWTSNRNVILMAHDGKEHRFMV

Drawing on article PMC6579465, this text covers binding for two substances.

No constants are given. Whether binding was seen depends on the method and setting. Binding seen in cells or lysates may run through a third protein. Here binding means that the protein was enriched with, or labelled near, the bait; the list need not be complete. A no says only that the protein was not detected with the bait.

For Rab3-GEF (from UniProt O08873 1-1602), the binding entry was “no binding”.

For “Rabconnectin3β (Rbcn3β) / WD repeat domain 7 (WDR7) (from UniProt Q9ERH3 1-1488)”, the binding entry was “binds”.
